Source: article PMC4326827, “Biophysical Studies on Interactions and Assembly of Full-size E3 Ubiquitin Ligase” (The Journal of Biological Chemistry, 2014)
Results are given in words; binding and its absence hold for the method and conditions named. Some entries that bind do so weakly or less than the wild type.

Tests used:
[1] = target: Recombinant human Cul5 (amino acids 1-780) (human) (UniProt Q93034); experiment: native MS; nano-electrospray TWIM-MS (Synapt G2), samples after gel filtration exchanged into 500 mM ammonium acetate pH 7.0, 5-10 μM; both purified
[2] = target: Recombinant human Cul5 (amino acids 1-780) (human) (UniProt Q93034); experiment: SEC-MALS; Superdex 200 10/300 GL, 50 mM HEPES pH 7.5, 150 mM NaCl, 0.5 mM TCEP; SOCS2-EloBC 130 μM, Cul5NTD 110 μM, SOCS2-EloBC-Cul5NTD 90 μM, Cul5-Rbx2 30 μM, SOCS2-EloBC-Cul5-Rbx2 35 μM; both purified

- binding [1]: binds
- binding [2]: binds
Substance: Recombinant human Rbx2 (amino acids 1-113) (from UniProt Q9UBF6 1-113)
